Record: PubChem BioAssay AID1259254 (NCATS, 2017)
Here is a random part of about 59,000 deposited reagents. About 1,550 of all reagents (2.6%) count as active. 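G2 share is only a proxy for re-replication; each gene was hit by three separate siRNAs, and active genes were retested.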 Raw values are not corrected between plates. Reagents against one gene are numbered here. Not given: the amount of reagent.

Assay: 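Finding genes that stop cells copying their DNA twice in one cycle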 (primary screen)
Cells: human HCT116 colorectal cancer cells
Knock-down reagent: single siRNA against human genes
Timing: 3 days
Detection: 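Imaged Hoechst DNA stain sorts each cell into a cycle phase by DNA amount; per plate, G2 fraction set to 0% for non-targeting and 100% for GMNN siRNA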
Reading the numbers: G2 robust z-score and G2 cells, % of GMNN control: higher = more G2 cells, more excess DNA replication; raw share of cells in G2: higher = larger share of cells with G2 DNA content
Hit rule: 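An siRNA counts as active if its G2 robust z-score lies at least 5 MADs above the screen median; here such calls match roughly 38% of GMNN control or more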

gene knocked down	reagent	G2 robust z-score	G2 cells, % of GMNN control	raw share of cells in G2 (%)	Call
HECW1	1	1.72	15	9.02	inactive
HECW1	2	-0.69	-1.89	5.61	inactive
HECW1	3	-0.654	-1.63	3.61	inactive
GPN3	1	-0.466	-0.308	5.81	inactive
GPN3	2	-0.951	-3.72	2.87	inactive
GPN3	3	-0.903	-3.38	2.5	inactive
GADL1	1	-0.832	-2.89	3.23	inactive
GADL1	2	1.51	13.6	11.8	inactive
GADL1	3	1.83	15.9	11.2	inactive
NIPSNAP2	1	2.95	23.7	16.4	inactive
NIPSNAP2	2	1.31	12.2	8.56	inactive
NIPSNAP2	3	1.02	10.2	7.51	inactive
RHOH	1	2.92	23.5	13.5	inactive
RHOH	2	-0.299	0.867	5.01	inactive
RHOH	3	3.14	25	13.3	inactive
GCC1	1	-0.349	0.512	4.8	inactive
GCC1	2	-0.707	-2.01	3.71	inactive
GCC1	3	1.16	11.1	5.63	inactive
RGMB-AS1	1	0.169	4.16	5.23	inactive
RGMB-AS1	2	-0.733	-2.19	2.59	inactive
RGMB-AS1	3	-0.0523	2.6	4	inactive
SEC14L4	1	-0.441	-0.133	5.85	inactive
SEC14L4	2	-0.713	-2.05	4.16	inactive
SEC14L4	3	2.4	19.8	11.5	inactive
PROB1	1	1.91	16.4	9.41	inactive
PROB1	2	2.41	19.9	12.1	inactive
PROB1	3	-0.652	-1.62	3.94	inactive

7 entries from above, arranged by “raw share of cells in G2 (%)”, ascending:
gene knocked down	reagent	G2 robust z-score	G2 cells, % of GMNN control	raw share of cells in G2 (%)	Call
GCC1	1	-0.349	0.512	4.8	inactive
RHOH	2	-0.299	0.867	5.01	inactive
NIPSNAP2	3	1.02	10.2	7.51	inactive
NIPSNAP2	2	1.31	12.2	8.56	inactive
RHOH	3	3.14	25	13.3	inactive
RHOH	1	2.92	23.5	13.5	inactive
NIPSNAP2	1	2.95	23.7	16.4	inactive

Further records follow.
gene knocked down	reagent	G2 robust z-score	G2 cells, % of GMNN control	raw share of cells in G2 (%)	Call
ODAD4	1	11.6	84.6	32.3	active
ODAD4	2	2.15	18.1	8.82	inactive
ODAD4	3	0.329	5.28	4.01	inactive
VIPR1	1	1.16	11.1	9.83	inactive
VIPR1	2	2.38	19.7	11.4	inactive
VIPR1	3	0.323	5.24	4.88	inactive
FKRP	1	-1.14	-5.06	1.36	inactive
FKRP	2	1.52	13.7	10.5	inactive
FKRP	3	-0.499	-0.54	4.37	inactive
CDH4	1	-0.542	-0.849	4.66	inactive
CDH4	2	-0.111	2.18	5.79	inactive
CDH4	3	-0.868	-3.14	3.01	inactive
CDCA3	1	0.988	9.92	7.41	inactive
CDCA3	2	-0.757	-2.36	2.76	inactive
CDCA3	3	-0.524	-0.722	2.19	inactive
C3orf85	1	-0.303	0.838	4.12	inactive
C3orf85	2	-0.405	0.115	3.56	inactive
C3orf85	3	-0.164	1.81	5.54	inactive
MGST3	1	-0.738	-2.23	4.5	inactive
MGST3	2	2.38	19.7	13.3	inactive
MGST3	3	-0.0692	2.48	4.01	inactive
CNTRL	1	1.24	11.7	9.58	inactive
CNTRL	2	0.597	7.17	7.09	inactive
CNTRL	3	-1.04	-4.34	1.55	inactive
RIIAD1	1	-0.568	-1.03	2.58	inactive
RIIAD1	2	1.23	11.6	8.66	inactive
RIIAD1	3	0.664	7.64	5.95	inactive
CCDC124	1	0.168	4.15	3.03	inactive
CCDC124	2	-0.558	-0.96	3.71	inactive
CCDC124	3	-0.401	0.149	3.37	inactive
SLC46A3	1	-0.908	-3.42	2.39	inactive
SLC46A3	2	0.0984	3.66	4.46	inactive
SLC46A3	3	2.37	19.6	9.23	inactive
FYTTD1	1	1.23	11.6	7.98	inactive
FYTTD1	2	-0.388	0.238	3.53	inactive
FYTTD1	3	-0.235	1.32	2.8	inactive
RAB3GAP1	1	2.91	23.4	11.9	inactive
RAB3GAP1	2	-0.526	-0.733	4.7	inactive
RAB3GAP1	3	0.00317	2.99	5.37	inactive
ATP5PO	1	0.2	4.38	5.62	inactive
ATP5PO	2	0.199	4.37	6.63	inactive
ATP5PO	3	-0.715	-2.06	4.02	inactive
